This assay in a line: qHTS Assay to Find Inhibitors of Chronic Active B-Cell Receptor Signaling. To be noted: ABC-DLBCL IkBa-CBG/CBR reporter, luminescence ratio (green luciferase fused to IkBa over red control in TMD8 lymphoma cells), 4 h. In outline: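 Concentration-response series (up to 46 uM) were applied to TMD8 dual-reporter cells for 4 h at 37C with doxycycline. Green/red ratio, after filter-overlap correction, defined %Activity; red signal alone was normalised to basal cells and zero luminescence.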

The mark [1] stands for this setting: measured here: CBR red luminescence, cell number.
[2] abbreviates: measured here: IkBa-CBG green luminescence.

By AC50 is commonly meant the concentration at which the activity in the assay is half-maximal.

Some of the results follow. Shown are side measurements of this screen, not its main read-out; they come without a call. The list favours compounds with an active or inconclusive main result. Potencies come from curve fits of mixed quality, noted in brackets.

As for `CCn1c2ccc(F)cc2c2nc3ccccc3nc21`, under setting [1], the AC50 is 35.5 µM [falling, partial curve, poor fit]. As for `Cc1ccc(NC(=O)c2oc3ccc(S(=O)(=O)N4CCCCCC4)cc3c2C)c(C)c1`, the concentration at half-maximal activity (AC50) under setting [1] was 35.5 µM [rising, single point].

As to `COc1ccc(N2CCN(C(=O)c3cc4c(C)nc5ccccc5c4o3)CC2)cc1`, under setting [1], the AC50 is 12.6 µM [falling, partial curve].

Take `CC(C)(C)C(=O)N(Cc1ccccc1)c1ccccn1`: the AC50 under setting [1] is 15.8 µM [rising, partial curve, poor fit]. Still for that read-out and setting: under `COc1ccccc1NC(=O)C1CCCN(S(=O)(=O)c2cnc[nH]2)C1` (stereo not given) stands 6.51 µM [falling, partial curve, poor fit]; under `Cc1ccc(C)c(SCC(=O)NC(=O)NC2CCCC2)c1`, 0.116 µM [rising, full curve, poor fit]; under `Cc1ccccc1NS(=O)(=O)c1ccc2[nH]cc(C(=O)NC3CCCCC3)c(=O)c2c1`, 23.1 µM [falling, single point]. As to `CCOc1ccc2nc(NC(=O)c3cccnc3)sc2c1`, the half-maximal activity concentration (AC50) under setting [1] was 0.731 µM [rising, full curve, poor fit]. As for `CC(=O)Cc1cc(O)c2ccccc2c1OC(=O)c1ccccc1`, the AC50 under setting [2] is 8.91 µM [falling, partial curve, poor fit]. Consider `Cc1ccnc(NC(=O)c2ccc([N+](=O)[O-])s2)c1`, for which the AC50 under setting [1] is 12.6 µM [falling, single point].

As to `Cc1ccc(NC(=O)COS(=O)c2ccc(C)cc2)cc1` (stereo not given), the AC50 under setting [1] was 4.11 µM [rising, single point]. In the case of `CCN(CC)C(=O)[C@H]1C[C@H](CC(=O)NCc2ccc(OC)c(OC)c2)C(=O)N2CCc3c([nH]c4cc(CCC(=O)N(C)C)ccc34)[C@]12C`, under setting [1], the AC50 is 29.1 µM [rising, single point]. On the same count and under the same terms, the result for `CCOC(=O)N1CCC(NC(=O)Cn2ncc3c4ccccc4n(C)c3c2=O)CC1` reads 23.1 µM [rising, single point]; that for `O=C(COC(=O)/C=C/c1cccs1)Nc1nc(-c2ccccc2)cs1`, 13 µM [falling, partial curve, poor fit]; that for `Cc1c(NC(=O)C(C)N(c2ccccc2)S(C)(=O)=O)c(=O)n(-c2ccccc2)n1C` (stereo not given), 0.447 µM [rising, partial curve, poor fit]. For the molecule `COc1ccccc1CNC(=O)C1CC(c2cccc([N+](=O)[O-])c2)=NO1` (stereo not given), the concentration at half-maximal activity (AC50) under setting [1] is 2 µM [falling, partial curve, poor fit].

With `O=C(COc1ccccc1[N+](=O)[O-])N/N=C/c1ccc[nH]1`, the AC50 under setting [1] is 17.8 µM [rising, partial curve, poor fit].

On to `CC1(C)CC(=O)/C(=C(/O)Cc2ccccc2)C(=NCCc2ccccc2)C1`, for which the AC50 under setting [1] is 6.51 µM [rising, single point].

As to `CCc1cc(C(=O)NNC(=O)c2csc(N3CCOCC3)n2)sc1C`, the AC50 under setting [1] is 29.1 µM [falling, single point]. In the case of `CCC1Oc2ccccc2N(CC(=O)NCCCN2CCCCC2CC)C1=O` (stereo not given), the AC50 under setting [1] is 23.1 µM [falling, partial curve, poor fit]. Regarding `Cc1ccc(-c2nc(-c3ccccn3)no2)cc1[N+](=O)[O-]`, under setting [1], the AC50 was 10 µM [falling, partial curve, poor fit].

As for `CCCc1nc2ccccc2n1CC(O)COc1ccc(NC(C)=O)cc1` (stereo not given), the AC50 under setting [1] was 10 µM [rising, partial curve]. Regarding `CC1Cc2cc(/C(O)=C3/C(=O)C(=O)N(CCCn4ccnc4)C3c3ccco3)ccc2O1` (stereo not given), the AC50 under setting [1] is 25.1 µM [rising, single point]. The same measure, in the same setting: under `O=C(CCCc1ccccc1)NCc1ccc(Cl)cc1` stands 2.82 µM [rising, partial curve, poor fit]; under `COc1ccc(C(=O)OC(C)C(=O)NCC2CCCCC2)cc1S(=O)(=O)N1CCOCC1` (stereo not given), 16.4 µM [rising, partial curve, poor fit]. Same read-out and setting: the result for `O=C(NCc1cccnc1)c1cccc(Cl)c1` reads 29.1 µM [rising, single point]. Still for that read-out and setting: the result for `Oc1c(Cl)cc(Cl)cc1/C=N/c1nccs1` reads 2.06 µM [rising, partial curve, poor fit].

Turning to `Cc1sc(NC(=O)C2CCCCC2)c(C#N)c1-c1ccccc1`, under setting [1], the AC50 is 2.51 µM [rising, full curve, poor fit]. Still for that read-out and setting: the result for `C(=N\Nc1nc2ccccc2[nH]1)/c1cccc2cccnc12` reads 22.4 µM [falling, partial curve, poor fit].

On to `COc1ccc(/C=N\NC(=O)c2cc3c(ccc4ccccc43)o2)cc1O`, for which, under setting [1], the AC50 was 8.91 µM [falling, partial curve].

For `NC(=O)c1cc(Cl)ccc1OCC(=O)Nc1ccc2c(c1)OCO2`, under setting [1], the AC50 is 3.26 µM [rising, single point]. For the molecule `CN(C(=O)Cn1cnc2sccc2c1=O)C1CCCCC1`, the half-maximal activity concentration (AC50) under setting [1] was 29.1 µM [rising, single point]. With `N#CC(=C1CCCC1)c1nc(-c2ccc(Cl)cc2)cs1`, the AC50 under setting [1] is 2.82 µM [rising, partial curve, poor fit]. Regarding `O=C(Nc1cccc(S(=O)(=O)N2CCOCC2)c1)c1cn(-c2ccccc2)nc1-c1ccccc1`, the AC50 under setting [1] was 6.51 µM [rising, single point]. Consider `Cc1ccc(/C=N/NC(=O)CSc2nc3ccccc3o2)cc1`, for which the AC50 under setting [1] was 0.082 µM [rising, full curve, poor fit]. The same measure, in the same setting: under `CCc1ccc(NC(=O)CSc2nnc(COc3ccc4c(c3)CCCC4)o2)cc1` stands 20.6 µM [rising, partial curve].

With `CCOC(=O)c1nn(-c2ccc(F)cc2)c(C)c1C(C)=O`, the AC50 under setting [1] is 0.731 µM [falling, partial curve, poor fit]. On to `C=CC[n+]1c(-c2ccc(Cl)cc2Cl)csc1Nc1c(C)n(C)n(-c2ccccc2)c1=O`, for which the AC50 under setting [1] was 35.5 µM [falling, single point]. The same measure, in the same setting: under `Cc1c(/C=N/NC(N)=O)c2ccccn2c1C(=O)c1ccncc1` stands 3.16 µM [rising, partial curve, poor fit]; under `CC(=O)NC12CC3CC(CC(CC(=O)O)(C3)C1)C2`, 0.092 µM [rising, full curve, poor fit]; under `CCCc1ccccc1OCCNC(C)=O`, 2.59 µM [rising, partial curve]. Same read-out and setting: the result for `CCCCOc1ccc(-c2n[nH]c(=S)n2Cc2ccccc2)cc1` reads 17.8 µM [rising, partial curve, poor fit]; that for `COc1cccc(C(=O)NCC(=O)OCC(=O)NC2CCCCC2)c1`, 29.1 µM [rising, single point].

Regarding `COc1cccc2c(C)c(C(=O)O)[nH]c12`, the AC50 under setting [2] was 23.1 µM [rising, partial curve, poor fit].

Consider `CCOC(=O)c1ccc(NC(=O)COc2ccccc2CNCCO)cc1`, for which, under setting [1], the AC50 was 22.4 µM [falling, single point]. On the same count and under the same terms, under `CCC(=O)Nc1nc2c(c(=O)[nH]1)CCCC2` stands 28.2 µM [falling, single point].

On to `S=C(NCc1ccc(Cl)c(Cl)c1)Nc1ccc2c(c1)OCO2`, for which the AC50 under setting [1] is 20.6 µM [falling, single point]. On the same count and under the same terms, the result for `Cc1ccc(OCc2nc(C#N)c(NCc3ccc4c(c3)OCO4)o2)cc1` reads 35.5 µM [falling, single point]. On the same count and under the same terms, under `CC(C(=O)Nc1ccc(O)cc1C(=O)O)N1C(=O)/C(=C\c2cccs2)SC1=S` (stereo not given) stands 20 µM [falling, partial curve, poor fit]. Consider `Cc1ccc(NC(=S)N/N=C2\CC(C)(C)Oc3ccc(O)cc32)cc1`, for which the AC50 under setting [2] was 18.4 µM [falling, partial curve, poor fit]. For the molecule `CCCc1cc(=O)oc2cc(C)cc(OCC(=O)Nc3ccccn3)c12`, the AC50 under setting [1] was 2.51 µM [falling, partial curve]. In the case of `CCN1C(=S)N[C@@H](c2cccc(C(F)(F)F)c2)C(C(=O)OC)=C1C`, the AC50 under setting [1] was 20 µM [falling, single point].

`Cc1ccc2[nH]c(C(=O)NN=C3CCCCC3)c(-c3ccccc3)c2c1`: the AC50 under setting [1] is 0.891 µM [rising, full curve, poor fit] and the AC50 under setting [2] is 2.82 µM [falling, full curve]. In the case of `CCC(CC)c1nnc(NC(=O)CCCN2C(=O)c3ccccc3C2=O)s1`, the concentration at half-maximal activity (AC50) under setting [1] is 4.11 µM [rising, full curve]. Same read-out and setting: the result for `CC1CCN(C(=O)CSc2nc3c(c(=O)n(C)c(=O)n3C)n2C)CC1` reads 5.01 µM [falling, full curve]; that for `CCN(CC)c1nc2c(s1)C(=O)CC(C)(C)C2`, 29.1 µM [falling, single point]. For `CCNc1nc(SC(C)C(=O)Nc2ccccc2)nc(N2CCOCC2)n1` (stereo not given), the AC50 under setting [1] is 23.1 µM [rising, single point]. Same read-out and setting: the result for `O=C(CN1CCN(S(=O)(=O)c2ccc(Cl)cc2)CC1)NCC1(N2CCOCC2)CCCCC1` reads 2.06 µM [rising, partial curve, poor fit]; that for `COc1ccc(S(=O)(=O)NCC(=O)Nc2ccc(F)cc2)cc1`, 4.61 µM [rising, partial curve, poor fit]. On the same count and under the same terms, under `CC1CCN(CCCNC(=O)c2ccc(Cn3c(=S)[nH]c4ccc(Br)cc4c3=O)cc2)CC1` stands 12.6 µM [falling, partial curve]; under `CCOC(=O)CNC(=O)CSc1nnc(SCC(=O)NCC(=O)OCC)s1`, 35.5 µM [rising, single point]. Consider `CCCC(=O)Oc1ccc2c(C)cc(=O)oc2c1`, for which the half-maximal activity concentration (AC50) under setting [1] is 18.4 µM [falling, partial curve, poor fit]. On the same count and under the same terms, under `O=C1/C(=C/c2ccc(Cl)cc2)SC(=S)N1CCC(=O)N1CCCCC1CCO` (stereo not given) stands 7.94 µM [falling, partial curve]; under `FC(F)(F)c1cnc(Nc2ccc(N3CCOCC3)cc2)c(Cl)c1`, 8.91 µM [rising, partial curve, poor fit].

These data come from PubChem BioAssay AID493014 (National Center for Advancing Translational Sciences (NCATS), 2011).
